Measurements: patent WO2021084104A1
No constants are given. Whether binding was seen depends on the method and setting. Binding can be weak; no strength is given.

Experiments:
[1] = biological target: OX40 extracellular domain (amino acids 1-216) with 8x His-tag (human); test: ELISA after incubation in 50% human serum at +37°C for up to 7 days
[2] = biological target: CD40 extracellular domain (amino acids 1-193) with 8x His-tag (human); test: as above
[3] = biological target: OX40 extracellular domain (amino acids 1-216) with 8x His-tag (human); test: ELISA on recombinant protein (Fig. 6A)
[4] = biological target: CD40 extracellular domain (amino acids 1-193) with 8x His-tag (human); test: ELISA on recombinant protein (Fig. 6A)
[5] = biological target: OX40 extracellular domain (amino acids 1-216) with 8x His-tag (human); test: Biacore, IgG captured on anti-human IgG, sequential antigen additions at 800 nM
[6] = biological target: CD40 extracellular domain (amino acids 1-193) with 8x His-tag (human); test: as above
[7] = biological target: OX40 extracellular domain (amino acids 1-216) with 8x His-tag (human); test: dose response ELISA on recombinant protein after incubation in 50% human serum (Fig. 15 B)
[8] = biological target: OX40 extracellular domain (amino acids 1-216) with 8x His-tag (human); test: ELISA, IgG captured on anti-human-Fc, non-biotinylated antigen titrated from 400 nM, biotinylated antigen detected (Fig. 8 A)
[9] = biological target: CD40 extracellular domain (amino acids 1-193) with 8x His-tag (human); test: as above
[10] = biological target: OX40 extracellular domain (amino acids 1-216) with 8x His-tag (human); test: Biacore, IgG captured, antigens at 800 nM (Fig. 9 A and B)
[11] = biological target: CD40 extracellular domain (amino acids 1-193) with 8x His-tag (human); test: as above
[12] = biological target: OX40 extracellular domain (amino acids 1-216) with 8x His-tag (human); test: ELISA on recombinant protein (Fig. 7)
[13] = biological target: CD40 extracellular domain (amino acids 1-193) with 8x His-tag (human); test: ELISA on recombinant protein (Fig. 7)
[14] = biological target: CD40 extracellular domain (amino acids 1-193) with 8x His-tag (human); test: dose response ELISA on recombinant protein after incubation in 50% human serum (Fig. 15 A)
[15] = biological target: OX40 extracellular domain (amino acids 1-216) with 8x His-tag (human); test: ELISA on recombinant protein
[16] = biological target: CD40 extracellular domain (amino acids 1-193) with 8x His-tag (human); test: ELISA on recombinant protein
[17] = biological target: CD40 extracellular domain (amino acids 1-193) with 8x His-tag (human); test: Biacore, IgG captured, antigens at 800 nM (Fig. 9 C and D)
[18] = biological target: 4-1BB extracellular domain (amino acids 1-186) with 8x His-tag (human); test: as above
[19] = biological target: 4-1BB extracellular domain (amino acids 1-186) with 8x His-tag (human); test: ELISA after incubation in 50% human serum at +37°C for up to 7 days
[20] = biological target: 4-1BB extracellular domain (amino acids 1-186) with 8x His-tag (human); test: Biacore, IgG captured on anti-human IgG, sequential antigen additions at 800 nM
[21] = biological target: CD40 extracellular domain (amino acids 1-193) with 8x His-tag (human); test: dose response ELISA on recombinant protein after incubation in 50% human serum (Fig. 15 C)
[22] = biological target: 4-1BB extracellular domain (amino acids 1-186) with 8x His-tag (human); test: dose response ELISA on recombinant protein after incubation in 50% human serum (Fig. 15 D)
[23] = biological target: OX40 extracellular domain (amino acids 1-216) with 8x His-tag (human); test: ELISA, IgG captured on anti-human-Fc, non-biotinylated antigen titrated, biotinylated antigen detected
[24] = biological target: 4-1BB extracellular domain (amino acids 1-186) with 8x His-tag (human); test: as above
[25] = biological target: OX40 extracellular domain (amino acids 1-216) with 8x His-tag (human); test: dose response ELISA on recombinant protein after incubation in 50% human serum (Fig. 15 E)
[26] = biological target: OX40 extracellular domain (amino acids 1-216) with 8x His-tag (human); test: Biacore, IgG captured, antigens at 800 nM (Fig. 9 E and F)
[27] = biological target: 4-1BB extracellular domain (amino acids 1-186) with 8x His-tag (human); test: as above
[28] = biological target: 4-1BB extracellular domain (amino acids 1-186) with 8x His-tag (human); test: ELISA on recombinant protein
[29] = biological target: 4-1BB extracellular domain (amino acids 1-186) with 8x His-tag (human); test: dose response ELISA on recombinant protein after incubation in 50% human serum (Fig. 15 F)
[30] = biological target: OX40 extracellular domain (amino acids 1-216) with 8x His-tag (human); test: ELISA on recombinant protein (Fig. 6C)
[31] = biological target: 4-1BB extracellular domain (amino acids 1-186) with 8x His-tag (human); test: ELISA on recombinant protein (Fig. 6C)
[32] = biological target: CD40 extracellular domain (amino acids 1-193) with 8x His-tag (human); test: ELISA, IgG captured on anti-human-Fc, non-biotinylated antigen titrated, biotinylated antigen detected
[33] = biological target: CD40 extracellular domain (amino acids 1-193) with 8x His-tag (human); test: ELISA on recombinant protein (Fig. 6B)
[34] = biological target: 4-1BB extracellular domain (amino acids 1-186) with 8x His-tag (human); test: ELISA on recombinant protein (Fig. 6B)

Measured: binding

B1: tetra VH IgG #2 (VH-CH1=OX40 #2, VH-CL=CD40 #5) (bispecific antibody, V domains shown, not shown: a dimerising Fc or GST)
V domain 1: EVQLLESGGGLVQPGGSLRLSCAASGFTFSSYAMSWVRQAPGKGLEWVSGVSGGGGSTYYADSVRGRFTISRDNSKNTLYLQMNSLRAEDTAVYYCARGWDDINVWGQGTLVTVSS
V domain 2: EVQLLESGGGLVQPGGSLRLSCAASGFTFSSYTMDWVRQAPGKGLEWVSSISESGDTTDYADSVKGRFTISRDNSKNTLYLQMNSLRAEDTAVYYCARCSGGSCYSVNWGQGTLVTVSS
binds: [1] | [2] | [3] | [4] | [5] | [6] | [7] | [8] | [9] | [10] | [11] | [12] | [13] | [14] | [15] | [16]

B2: tetra VH IgG #5 (VH-CH1=CD40 #5, VH-CL=OX40 #2) (bispecific antibody, V domains shown, not shown: a dimerising Fc or GST)
V domain 1: EVQLLESGGGLVQPGGSLRLSCAASGFTFSSYTMDWVRQAPGKGLEWVSSISESGDTTDYADSVKGRFTISRDNSKNTLYLQMNSLRAEDTAVYYCARCSGGSCYSVNWGQGTLVTVSS
V domain 2: EVQLLESGGGLVQPGGSLRLSCAASGFTFSSYAMSWVRQAPGKGLEWVSGVSGGGGSTYYADSVRGRFTISRDNSKNTLYLQMNSLRAEDTAVYYCARGWDDINVWGQGTLVTVSS
binds: [12] | [13] | [15] | [16]

B3: tetra-VH IgG #19 (VH-CH1=41BB #4, VH-CL=CD40 #5) (bispecific antibody, V domains shown, not shown: a dimerising Fc or GST)
V domain 1: EVQLLESGGGLVQPGGSLRLSCAASGFTFGDYAMSWFRQAPGKGLEWVAVLSYDGSNTDYADSVKGRFTISRDNSKNTLYLQMNSLRAEDTAVYYCAKGPLILAAGNYWGQGTLVTVSS
V domain 2: EVQLLESGGGLVQPGGSLRLSCAASGFTFSSYTMDWVRQAPGKGLEWVSSISESGDTTDYADSVKGRFTISRDNSKNTLYLQMNSLRAEDTAVYYCARCSGGSCYSVNWGQGTLVTVSS
binds: [17] | [18] | [2] | [19] | [6] | [20] | [21] | [22]

B4: tetra VH IgG #3 (VH-CH1=41BB #2, VH-CL=OX40 #2) (bispecific antibody, V domains shown, not shown: a dimerising Fc or GST)
V domain 1: EVQLLESGGGLVQPGGSLRLSCAASGFTFGDYAMSWFRQAPGKGLEWVAVISDDGSNKYYADSVMGRFTISRDNSKNTLYLQMNSLRAEDTAMYYCAGHYDYVWGSFRYGAFDIWGQGTLVTVSS
V domain 2: EVQLLESGGGLVQPGGSLRLSCAASGFTFSSYAMSWVRQAPGKGLEWVSGVSGGGGSTYYADSVRGRFTISRDNSKNTLYLQMNSLRAEDTAVYYCARGWDDINVWGQGTLVTVSS
binds: [23] | [24]

B5: tetra VH IgG #20 (VH-CH1=41BB #4, VH-CL=OX40 #2) (bispecific antibody, V domains shown, not shown: a dimerising Fc or GST)
V domain 1: EVQLLESGGGLVQPGGSLRLSCAASGFTFGDYAMSWFRQAPGKGLEWVAVLSYDGSNTDYADSVKGRFTISRDNSKNTLYLQMNSLRAEDTAVYYCAKGPLILAAGNYWGQGTLVTVSS
V domain 2: EVQLLESGGGLVQPGGSLRLSCAASGFTFSSYAMSWVRQAPGKGLEWVSGVSGGGGSTYYADSVRGRFTISRDNSKNTLYLQMNSLRAEDTAVYYCARGWDDINVWGQGTLVTVSS
binds: [1] | [19] | [5] | [20] | [25] | [26] | [27] | [15] | [28] | [29] | [30] | [31]

B6: tetra VH IgG #4 (VH-CH1=41BB #4, VH-CL=CD40 #3) (bispecific antibody, V domains shown, not shown: a dimerising Fc or GST)
V domain 1: EVQLLESGGGLVQPGGSLRLSCAASGFTFGDYAMSWFRQAPGKGLEWVAVLSYDGSNTDYADSVKGRFTISRDNSKNTLYLQMNSLRAEDTAVYYCAKGPLILAAGNYWGQGTLVTVSS
V domain 2: EVQLLESGGGLVQPGGSLRLSCAASGFTFSSYAMSWVRQAPGKGLEWVSRLNSDGITATYADSVKGRFTISRDNSKNTLYLQMNSLRAEDTAVYYCARGKIPAIDHWGQGTLVTVSS
binds: [32] | [24] | [33] | [34] | [16] | [28]
